Laboratory results from publication PMC6056500, “Novel interactomics approach identifies ABCA1 as direct target of evodiamine, which increases macrophage cholesterol efflux” (Scientific Reports, 2018).
No constants are given. Whether binding was seen depends on the method and setting. Some results given as binding are weak or reduced against the parent protein; the word gives no strength.

The chains behind the UniProt entries cited, without tags or fusion partners.
UniProt O95477: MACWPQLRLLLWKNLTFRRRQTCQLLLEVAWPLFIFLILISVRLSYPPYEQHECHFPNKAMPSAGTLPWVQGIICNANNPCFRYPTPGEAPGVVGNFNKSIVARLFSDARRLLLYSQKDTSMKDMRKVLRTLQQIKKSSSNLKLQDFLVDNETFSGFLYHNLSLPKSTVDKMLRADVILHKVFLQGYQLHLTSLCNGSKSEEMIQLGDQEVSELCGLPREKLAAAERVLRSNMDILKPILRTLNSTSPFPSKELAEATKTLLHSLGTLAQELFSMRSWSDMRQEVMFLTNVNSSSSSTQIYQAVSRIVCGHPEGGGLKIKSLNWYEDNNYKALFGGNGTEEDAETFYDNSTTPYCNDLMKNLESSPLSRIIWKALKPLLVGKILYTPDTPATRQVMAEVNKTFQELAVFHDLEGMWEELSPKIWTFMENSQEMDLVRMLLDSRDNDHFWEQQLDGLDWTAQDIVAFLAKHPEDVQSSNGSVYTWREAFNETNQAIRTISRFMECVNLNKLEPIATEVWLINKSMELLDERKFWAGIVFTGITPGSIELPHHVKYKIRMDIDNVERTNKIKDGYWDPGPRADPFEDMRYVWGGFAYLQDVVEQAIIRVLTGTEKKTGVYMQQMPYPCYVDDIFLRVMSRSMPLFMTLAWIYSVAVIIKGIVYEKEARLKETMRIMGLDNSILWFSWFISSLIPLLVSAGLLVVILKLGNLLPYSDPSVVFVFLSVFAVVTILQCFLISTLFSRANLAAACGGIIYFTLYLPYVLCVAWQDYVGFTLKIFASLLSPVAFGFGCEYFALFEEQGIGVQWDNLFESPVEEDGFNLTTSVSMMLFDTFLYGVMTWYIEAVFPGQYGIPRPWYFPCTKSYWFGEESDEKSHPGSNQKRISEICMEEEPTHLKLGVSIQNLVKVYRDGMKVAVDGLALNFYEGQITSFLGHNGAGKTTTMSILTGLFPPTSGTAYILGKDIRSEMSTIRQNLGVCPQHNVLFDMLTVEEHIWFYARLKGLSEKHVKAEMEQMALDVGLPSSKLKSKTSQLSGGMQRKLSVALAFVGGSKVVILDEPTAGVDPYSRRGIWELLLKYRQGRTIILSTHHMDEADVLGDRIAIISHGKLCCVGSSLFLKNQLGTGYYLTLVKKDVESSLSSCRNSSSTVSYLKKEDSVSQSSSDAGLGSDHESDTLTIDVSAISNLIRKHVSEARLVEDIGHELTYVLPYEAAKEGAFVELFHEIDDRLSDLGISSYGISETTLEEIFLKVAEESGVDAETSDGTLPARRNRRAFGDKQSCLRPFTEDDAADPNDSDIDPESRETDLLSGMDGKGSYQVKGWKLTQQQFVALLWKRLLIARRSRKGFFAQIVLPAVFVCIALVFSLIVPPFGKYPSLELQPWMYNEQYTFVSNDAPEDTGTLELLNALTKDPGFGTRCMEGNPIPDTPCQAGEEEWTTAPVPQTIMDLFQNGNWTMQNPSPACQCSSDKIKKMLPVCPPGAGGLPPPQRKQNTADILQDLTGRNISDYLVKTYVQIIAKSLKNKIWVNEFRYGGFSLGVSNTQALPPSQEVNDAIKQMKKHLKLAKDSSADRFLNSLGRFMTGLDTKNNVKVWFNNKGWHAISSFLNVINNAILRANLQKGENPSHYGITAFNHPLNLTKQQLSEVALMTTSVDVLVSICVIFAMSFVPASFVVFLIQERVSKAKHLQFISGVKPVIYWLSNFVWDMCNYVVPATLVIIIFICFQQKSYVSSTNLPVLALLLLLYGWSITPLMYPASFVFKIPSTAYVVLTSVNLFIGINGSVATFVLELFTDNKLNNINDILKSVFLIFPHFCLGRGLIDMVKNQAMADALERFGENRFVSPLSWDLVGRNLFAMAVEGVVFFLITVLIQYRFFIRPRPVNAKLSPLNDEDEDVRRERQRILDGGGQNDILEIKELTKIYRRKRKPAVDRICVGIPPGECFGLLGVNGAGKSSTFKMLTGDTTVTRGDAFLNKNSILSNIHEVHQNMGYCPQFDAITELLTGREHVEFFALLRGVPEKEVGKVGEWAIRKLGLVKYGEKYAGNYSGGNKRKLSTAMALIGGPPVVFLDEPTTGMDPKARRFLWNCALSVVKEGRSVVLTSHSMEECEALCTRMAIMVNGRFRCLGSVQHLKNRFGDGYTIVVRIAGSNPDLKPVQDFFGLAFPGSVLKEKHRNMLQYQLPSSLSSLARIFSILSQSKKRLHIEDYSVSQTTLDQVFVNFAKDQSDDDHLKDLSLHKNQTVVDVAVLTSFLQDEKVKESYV

Target: ATP-binding cassette transporter A1 (ABCA1), endogenous in THP-1-derived macrophages (human (endogenous in THP-1)) (UniProt O95477)
Test: nematic protein organisation technique (NPOT) with LC-MS/MS; 1 uM evodiamine mixed with 1 ug total THP-1 extract at 4 °C; heteroassemblies formed in a transitory pH gradient (5-10), isolated and identified by mass spectrometry; no heteroassembly forms without evodiamine

B1: retinal dehydrogenase 1 (ALDH1A1), endogenous in THP-1-derived macrophages (enzyme, UniProt P00352 1-501)
chain: MSSSGTPDLPVLLTDLKIQYTKIFINNEWHDSVSGKKFPVFNPATEEELCQVEEGDKEDVDKAVKAARQAFQIGSPWRTMDASERGRLLYKLADLIERDRLLLATMESMNGGKLYSNAYLNDLAGCIKTLRYCAGWADKIQGRTIPIDGNFFTYTRHEPIGVCGQIIPWNFPLVMLIWKIGPALSCGNTVVVKPAEQTPLTALHVASLIKEAGFPPGVVNIVPGYGPTAGAAISSHMDIDKVAFTGSTEVGKLIKEAAGKSNLKRVTLELGGKSPCIVLADADLDNAVEFAHHGVFYHQGQCCIAASRIFVEESIYDEFVRRSVERAKKYILGNPLTPGVTQGPQIDKEQYDKILDLIESGKKEGAKLECGGGPWGNKGYFVQPTVFSNVTDEMRIAKEEIFGPVQQIMKFKSLDDVIKRANNTFYGLSAGVFTKDIDKAITISSALQAGTVWVNCYGVVSAQCPFGGFKMSGNGRELGEYGFHEYTEVKTVTVKISQKNS
B1 was tested, and the binding was “binds”.
